Measurements reported in PMC7049960.
No constants are given. Whether binding was seen depends on the method and setting. Binding seen in cells or lysates may run through a third protein. Binding can be weak; no strength is given.

biological target: T1, ATF4 bZIP TAP construct (mouse) (UniProt Q06507); assay: co-IP; one-step pulldown with anti-FLAG magnetic beads from pooled extracts of mouse TA muscles (12 mice) expressing the ATF4 bZIP TAP construct or the empty TAP construct, SDS-PAGE and immunoblot of endogenous proteins
T1 sequence: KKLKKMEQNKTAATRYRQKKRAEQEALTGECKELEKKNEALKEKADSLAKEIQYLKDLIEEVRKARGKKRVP

binding, binds:
C/EBPβ isoform LIP (liver-inhibitory protein)
C/EBPα isoform p30
C/EBPα isoform p42 (from UniProt P53566-1)
C/EBPβ isoform LAP (liver-activating protein)
